# Results of single-concentration screens

Chains of the proteins cited; added tags and fusions are not shown. Residues count along the entry.
UniProt Q8IDJ8, 1-583: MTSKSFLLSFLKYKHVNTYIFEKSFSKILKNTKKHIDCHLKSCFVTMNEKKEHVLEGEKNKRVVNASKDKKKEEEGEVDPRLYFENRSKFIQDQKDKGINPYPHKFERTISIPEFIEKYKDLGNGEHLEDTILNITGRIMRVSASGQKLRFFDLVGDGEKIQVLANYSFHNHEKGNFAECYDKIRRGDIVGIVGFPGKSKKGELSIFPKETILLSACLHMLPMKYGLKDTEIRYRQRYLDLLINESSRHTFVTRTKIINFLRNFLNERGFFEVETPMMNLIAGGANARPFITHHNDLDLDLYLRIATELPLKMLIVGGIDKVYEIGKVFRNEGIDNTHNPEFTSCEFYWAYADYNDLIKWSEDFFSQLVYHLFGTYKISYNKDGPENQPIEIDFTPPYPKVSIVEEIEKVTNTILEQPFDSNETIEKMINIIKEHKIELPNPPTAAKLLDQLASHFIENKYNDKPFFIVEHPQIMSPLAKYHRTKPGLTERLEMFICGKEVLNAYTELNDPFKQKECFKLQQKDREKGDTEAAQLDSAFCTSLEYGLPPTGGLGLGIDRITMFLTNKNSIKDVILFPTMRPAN
UniProt I6X8D2, whole entry: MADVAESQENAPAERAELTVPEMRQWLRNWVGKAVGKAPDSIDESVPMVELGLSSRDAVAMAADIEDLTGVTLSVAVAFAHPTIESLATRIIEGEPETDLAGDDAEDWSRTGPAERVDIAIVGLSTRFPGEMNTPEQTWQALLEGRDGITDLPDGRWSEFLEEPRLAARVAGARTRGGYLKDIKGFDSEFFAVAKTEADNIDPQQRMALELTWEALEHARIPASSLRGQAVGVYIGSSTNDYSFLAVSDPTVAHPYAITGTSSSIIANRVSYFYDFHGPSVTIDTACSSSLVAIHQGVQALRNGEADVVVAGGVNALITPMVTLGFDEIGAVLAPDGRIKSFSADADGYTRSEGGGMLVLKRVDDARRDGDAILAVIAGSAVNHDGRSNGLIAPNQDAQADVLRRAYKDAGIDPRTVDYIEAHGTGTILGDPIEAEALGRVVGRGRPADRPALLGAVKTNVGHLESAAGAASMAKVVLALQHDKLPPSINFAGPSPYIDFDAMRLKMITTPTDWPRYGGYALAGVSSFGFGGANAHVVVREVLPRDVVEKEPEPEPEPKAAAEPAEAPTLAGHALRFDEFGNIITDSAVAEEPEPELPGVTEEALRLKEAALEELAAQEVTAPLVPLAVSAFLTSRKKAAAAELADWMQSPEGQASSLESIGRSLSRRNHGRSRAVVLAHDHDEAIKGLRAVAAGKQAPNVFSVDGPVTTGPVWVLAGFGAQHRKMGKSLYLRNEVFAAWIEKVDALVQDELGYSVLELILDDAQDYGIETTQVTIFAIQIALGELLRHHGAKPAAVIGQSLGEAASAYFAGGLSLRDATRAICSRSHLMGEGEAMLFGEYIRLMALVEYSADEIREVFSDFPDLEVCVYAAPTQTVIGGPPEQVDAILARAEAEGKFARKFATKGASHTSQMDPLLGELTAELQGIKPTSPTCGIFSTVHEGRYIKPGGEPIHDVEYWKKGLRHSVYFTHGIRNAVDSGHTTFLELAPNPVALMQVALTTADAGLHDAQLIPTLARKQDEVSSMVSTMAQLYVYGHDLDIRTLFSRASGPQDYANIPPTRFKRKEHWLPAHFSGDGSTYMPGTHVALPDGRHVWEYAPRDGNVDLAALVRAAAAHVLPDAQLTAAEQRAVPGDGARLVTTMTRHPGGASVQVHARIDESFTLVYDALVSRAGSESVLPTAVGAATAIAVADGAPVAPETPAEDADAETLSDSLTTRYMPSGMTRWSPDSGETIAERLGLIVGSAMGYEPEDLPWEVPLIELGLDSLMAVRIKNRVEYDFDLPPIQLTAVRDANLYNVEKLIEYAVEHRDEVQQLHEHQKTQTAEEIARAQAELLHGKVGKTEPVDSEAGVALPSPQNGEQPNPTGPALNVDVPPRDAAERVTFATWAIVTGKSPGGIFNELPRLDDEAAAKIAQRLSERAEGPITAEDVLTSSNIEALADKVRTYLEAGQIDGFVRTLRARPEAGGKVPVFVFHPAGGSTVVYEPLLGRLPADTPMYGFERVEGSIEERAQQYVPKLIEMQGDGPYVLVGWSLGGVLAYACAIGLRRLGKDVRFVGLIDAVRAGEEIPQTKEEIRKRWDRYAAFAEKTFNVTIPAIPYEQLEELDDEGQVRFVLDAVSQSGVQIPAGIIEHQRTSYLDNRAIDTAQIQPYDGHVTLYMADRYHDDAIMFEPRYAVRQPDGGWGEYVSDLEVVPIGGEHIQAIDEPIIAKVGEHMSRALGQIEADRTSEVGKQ
UniProt P9WNZ1, whole entry: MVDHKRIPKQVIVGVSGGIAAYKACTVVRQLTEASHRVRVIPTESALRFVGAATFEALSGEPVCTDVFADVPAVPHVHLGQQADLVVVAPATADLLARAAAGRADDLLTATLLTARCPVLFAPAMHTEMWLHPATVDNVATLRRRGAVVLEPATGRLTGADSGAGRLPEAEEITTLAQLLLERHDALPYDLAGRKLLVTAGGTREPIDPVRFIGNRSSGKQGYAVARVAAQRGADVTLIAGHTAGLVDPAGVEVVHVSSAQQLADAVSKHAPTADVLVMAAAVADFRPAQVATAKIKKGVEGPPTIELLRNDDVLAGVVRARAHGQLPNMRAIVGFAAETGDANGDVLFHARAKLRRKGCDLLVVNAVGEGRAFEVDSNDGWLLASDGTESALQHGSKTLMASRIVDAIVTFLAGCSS
UniProt Q4DA54, 1-478: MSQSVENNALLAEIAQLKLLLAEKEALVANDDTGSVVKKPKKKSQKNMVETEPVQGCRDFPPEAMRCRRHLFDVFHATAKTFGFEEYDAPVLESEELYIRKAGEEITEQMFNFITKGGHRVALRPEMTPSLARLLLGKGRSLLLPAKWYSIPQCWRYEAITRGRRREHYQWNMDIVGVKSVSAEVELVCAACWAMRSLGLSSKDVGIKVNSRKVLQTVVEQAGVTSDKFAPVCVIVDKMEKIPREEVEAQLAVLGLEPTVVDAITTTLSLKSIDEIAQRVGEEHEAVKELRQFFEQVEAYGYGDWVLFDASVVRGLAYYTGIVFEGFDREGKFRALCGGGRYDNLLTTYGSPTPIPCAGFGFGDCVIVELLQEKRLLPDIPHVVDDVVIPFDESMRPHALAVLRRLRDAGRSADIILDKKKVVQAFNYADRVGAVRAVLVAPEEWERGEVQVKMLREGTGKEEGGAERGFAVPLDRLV
UniProt P9WFT3, whole entry: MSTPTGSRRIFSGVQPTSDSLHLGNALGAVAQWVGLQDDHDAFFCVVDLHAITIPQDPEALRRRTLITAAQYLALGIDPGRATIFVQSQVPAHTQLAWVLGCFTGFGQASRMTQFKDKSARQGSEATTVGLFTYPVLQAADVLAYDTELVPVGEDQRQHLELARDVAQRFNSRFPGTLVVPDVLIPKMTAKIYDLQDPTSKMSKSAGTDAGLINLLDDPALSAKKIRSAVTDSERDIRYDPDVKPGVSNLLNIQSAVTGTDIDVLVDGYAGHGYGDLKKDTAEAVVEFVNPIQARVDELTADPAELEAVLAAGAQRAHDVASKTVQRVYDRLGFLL
UniProt P9WPC5, whole entry: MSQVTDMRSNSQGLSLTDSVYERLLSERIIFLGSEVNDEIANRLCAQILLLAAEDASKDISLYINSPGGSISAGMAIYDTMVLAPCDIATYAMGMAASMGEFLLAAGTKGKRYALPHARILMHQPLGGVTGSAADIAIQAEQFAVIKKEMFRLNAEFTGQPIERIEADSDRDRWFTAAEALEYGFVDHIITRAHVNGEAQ
UniProt P9WPC3, whole entry partner: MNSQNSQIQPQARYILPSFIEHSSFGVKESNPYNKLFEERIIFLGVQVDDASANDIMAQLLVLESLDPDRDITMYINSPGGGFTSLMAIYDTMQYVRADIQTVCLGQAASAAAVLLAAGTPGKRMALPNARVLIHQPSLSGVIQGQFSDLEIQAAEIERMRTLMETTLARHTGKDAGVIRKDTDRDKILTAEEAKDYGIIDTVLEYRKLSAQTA

The values are deposited in ChEMBL (CHEMBL3988442, “University of Dundee, Small-Polar-MMV Screening Library” (2021)).

The filed quantity is “Percent Effect” (%). How 0% and 100% were set is not recorded. Most values in the screen are low, and negative values occur. The compounds are a random part of those screened.

A: 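Enzyme assay of the cytosolic lysyl-tRNA synthetase in 384-well plates, read by luminescence. Target: Lysine-tRNA ligase, Plasmodium falciparum 3D7 (UniProt Q8IDJ8). Concentration: 30 µM. Higher reads as stronger inhibition, judged from the few compounds that gave an IC50. Size under these conditions: about 69,000 compounds, about 49 of them at 50% or above in at least one test.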
B: 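Enzyme assay of the thioesterase domain of polyketide synthase 13; the read-out is not stated. Target: Polyketide synthase Pks13, Mycobacterium tuberculosis (UniProt I6X8D2). Tested at 30 µM. The record gives no direction; the compounds picked for IC50 retests had high values, so higher reads as stronger inhibition. Size under these conditions: about 67,000 compounds, about 300 of them at 50% or above in at least one test.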
C: 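Enzyme assay of CoaBC with a phosphate dye (Biomol Green) read at 650 nm. Target: Coenzyme A biosynthesis protein CoaBC, Mycobacterium tuberculosis (UniProt P9WNZ1). Tested at 30 µM. Direction is inferred from only a few compounds that gave an IC50; most scored high, so higher reads as stronger inhibition. Most strong results did not repeat in a second test. Size under these conditions: about 67,000 compounds, about 40 of them at 50% or above in at least one test.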
D: 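Histidine-tRNA ligase, Trypanosoma cruzi CL Brener (UniProt Q4DA54). Enzyme assay of histidyl-tRNA synthetase; the read-out is not stated. Tested at 30 µM. Higher reads as stronger inhibition (inferred: compounds with an IC50 in retests scored well above the rest). Size under these conditions: about 69,000 compounds, about 31 of them at 50% or above in at least one test.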
E: 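Tryptophan-tRNA ligase, Mycobacterium tuberculosis (UniProt P9WFT3). Enzyme assay of tryptophanyl-tRNA synthetase; the read-out is not stated. Tested at 10 µM. Higher most likely means stronger inhibition; the record gives no direction and few retests gave an IC50. About 65,000 compounds were tested under these conditions; 0.098% (about 64) showed 50% or more at least once.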
F: 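Protease assay of ClpP1P2, read by the AMC dye that it sets free. Target: ClpP1P2, Mycobacterium tuberculosis (UniProt P9WPC5 and UniProt P9WPC3). Tested at 50 µM. Direction is inferred from only a few compounds that gave an IC50; most scored high, so higher reads as stronger inhibition. Most other retested compounds had strongly negative values. Of about 69,000 compounds tested this way, about 10 (0.015%) reached 50% or more in at least one test.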

* Cn1ccc(C(=O)NC2CCC23CCN(C(=O)C2CCOCC2)CC3)c1 (configuration not stated) | A: 1.718%; B: -21.78%; C: 3.553%; D: 6.897%; E: -6.173%; F: -9.611%
* OC(CN1CCCCc2ccccc21)Cn1cccn1 (configuration not stated) | A: -0.147%; B: -37.23%; C: -5.652%; D: 4.813%; E: 0.867%; F: -6.788%
* Cn1cnnc1CN1CCC2(CCCN(C3CCCCC3)C2=O)C1 (configuration not stated) | A: 1.526%; B: -8.123%; C: 15.35%; D: 10.05%; E: 0.05889%; F: 3.607%
* Cc1nn(C)c(C)c1C1CCCN1C(=O)c1ccc2nnc(C)n2c1 (configuration not stated) | A: -0.006539%; B: -6.947%; C: 9.091%; D: 7.289%; E: -2.806%; F: -21.87%
* Cc1nn(C)c(C)c1S(=O)(=O)N1C[C@@H]2C[C@@H](C)O[C@@H]2C1 | A: 2.207%; B: -27.22%; C: 3.218%; D: -1.942%; E: -2.907%; F: -4.663%
* COCC(=O)N1CCc2ccc(=O)n(Cc3csc(C)n3)c2CC1 | A: -0.7763%; B: -28.8%; C: 3.333%; D: 3.743%; E: 2.891%; F: -1.68%
* CNS(=O)(=O)CCCN1CCCC1c1cc(C)on1 (configuration not stated) | A: -0.1778%; B: -12.63%; C: -2.828%; D: 3.759%; E: -0.7081%; F: 1.179%
* CCc1nc(N)sc1C(=O)N1CCC(c2cc(O)nc(C)n2)CC1 | A: 0.1711%; B: -15.78%; C: 0.3745%; D: 5.102%; E: 0.4691%; F: 9.898%
* Cc1nc(CC2CCCN(Cc3nc4ccccc4c(=O)[nH]3)C2)no1 (configuration not stated) | A: 2.95%; B: -4.139%; C: -5%; D: -1.807%; E: 6.225%; F: -0.1043%
* Cc1cc(CN2CCc3c(CNc4ncccn4)cncc3C2)oc1C | A: -0.9056%; B: -27.05%; C: 4.569%; D: 6.897%; E: -5.021%; F: 12.1%
* CCC(C)NC(=O)c1nn(C)c(NC(=O)c2ccccc2OC)c1F (configuration not stated) | A: -0.5263%; B: -1.296%; C: 1.928%; D: 11.88%; E: 1.23%; F: 9.516%
* Cn1nc(C2CNCCO2)cc1CCOc1ccc(C(F)(F)F)cc1 (configuration not stated) | A: 1.516%; B: 11.62%; C: -3.313%; D: 7.752%; E: -9.841%; F: -16.67%
* COC(=O)CNC(=O)CCCn1cnc2ccccc2c1=O | A: 0.6407%; B: -7.148%; C: 0.7229%; D: 11.88%; E: 3.56%; F: 25.76%
* Cn1cccc1-c1cc(C(=O)N2CCCC2c2ccc(C(N)=O)s2)[nH]n1 (configuration not stated) | A: 4.209%; B: -20.72%; C: 8.73%; D: 2.041%; E: 4.131%; F: -2.732%

2 of the entries, repeated:

| compound | A | B | C | D | E | F |
|---|---|---|---|---|---|---|
| `Cn1nc(C2CNCCO2)cc1CCOc1ccc(C(F)(F)F)cc1` (configuration not stated) | 1.516% | 11.62% | -3.313% | 7.752% | -9.841% | -16.67% |
| `Cn1ccc(C(=O)NC2CCC23CCN(C(=O)C2CCOCC2)CC3)c1` (configuration not stated) | 1.718% | -21.78% | 3.553% | 6.897% | -6.173% | -9.611% |